For four molecules, binding results are on record in publication PMC5484543.

Experiment [1] has as its target T1, 3xFLAG-B12, Q9NXW2.
T1 chain: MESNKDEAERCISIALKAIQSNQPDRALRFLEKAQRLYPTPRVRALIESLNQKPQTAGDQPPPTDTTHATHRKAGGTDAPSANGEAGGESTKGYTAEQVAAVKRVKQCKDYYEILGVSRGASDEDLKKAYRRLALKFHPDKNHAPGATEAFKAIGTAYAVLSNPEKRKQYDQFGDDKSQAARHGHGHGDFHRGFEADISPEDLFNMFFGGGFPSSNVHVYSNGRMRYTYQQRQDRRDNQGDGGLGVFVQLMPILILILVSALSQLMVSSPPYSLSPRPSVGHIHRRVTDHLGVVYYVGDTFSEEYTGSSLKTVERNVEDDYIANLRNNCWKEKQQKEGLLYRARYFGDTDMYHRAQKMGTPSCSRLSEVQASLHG
Nature of the experiment: affinity purification with mass spectrometry; 3xFLAG-B12 stable Flp-In 293 T-REx cells; digitonin-permeabilised, pellet lysed in 50 mM Hepes pH 7.5, 150 mM NaCl, 1% deoxy Big CHAP; anti-FLAG M2 antibody and Protein G magnetic beads, 4°C; eluted with 3xFLAG peptide; shot gun mass spectrometry; parental cells as control. To be noted: remark: other sources report otherwise.

In experiment [2] the target is T2, 3xFLAG-B12 (UniProt Q9NXW2).
T2 sequence: T1 chain
The description is as above.

These are yes or no findings as the source states them, for the method shown. In cells and extracts the contact can be indirect. A yes stands for co-enrichment or nearness to the bait. Other partners may have been found. Tags and fused reporters may be left off the sequences shown.

B1: Sel1L, Q9UBV2 22-794 (protein)
chain: SSDEEGSQDESLDSKTTLTSDESVKDHTTAGRVVAGQIFLDSEESELESSIQEEEDSLKSQEGESVTEDISFLESPNPENKDYEEPKKVRKPALTAIEGTAHGEPCHFPFLFLDKEYDECTSDGREDGRLWCATTYDYKADEKWGFCETEEEAAKRRQMQEAEMMYQTGMKILNGSNKKSQKREAYRYLQKAASMNHTKALERVSYALLFGDYLPQNIQAAREMFEKLTEEGSPKGQTALGFLYASGLGVNSSQAKALVYYTFGALGGNLIAHMVLGYRYWAGIGVLQSCESALTHYRLVANHVASDISLTGGSVVQRIRLPDEVENPGMNSGMLEEDLIQYYQFLAEKGDVQAQVGLGQLHLHGGRGVEQNHQRAFDYFNLAANAGNSHAMAFLGKMYSEGSDIVPQSNETALHYFKKAADMGNPVGQSGLGMAYLYGRGVQVNYDLALKYFQKAAEQGWVDGQLQLGSMYYNGIGVKRDYKQALKYFNLASQGGHILAFYNLAQMHASGTGVMRSCHTAVELFKNVCERGRWSERLMTAYNSYKDGDYNAAVIQYLLLAEQGYEVAQSNAAFILDQREASIVGENETYPRALLHWNRAASQGYTVARIKLGDYHFYGFGTDVDYETAFIHYRLASEQQHSAQAMFNLGYMHEKGLGIKQDIHLAKRFYDMAAEASPDAQVPVFLALCKLGVVYFLQYIRETNIRDMFTQLDMDQLLGPEWDLYLMTIIALLLGTVIAYRQRQHQDMPAPRPPGPRPAPPQQEGPPEQQPPQ
Consider B1, for which the binding entry in experiment [1] was “binds”.

B2: Erlin2 (endogenous) (protein, UniProt O94905 1-339)
chain: MAQLGAVVAVASSFFCASLFSAVHKIEEGHIGVYYRGGALLTSTSGPGFHLMLPFITSYKSVQTTLQTDEVKNVPCGTSGGVMIYFDRIEVVNFLVPNAVYDIVKNYTADYDKALIFNKIHHELNQFCSVHTLQEVYIELFDQIDENLKLALQQDLTSMAPGLVIQAVRVTKPNIPEAIRRNYELMESEKTKLLIAAQKQKVVEKEAETERKKALIEAEKVAQVAEITYGQKVMEKETEKKISEIEDAAFLAREKAKADAECYTAMKIAEANKLKLTPEYLQLMKYKAIASNSKIYFGKDIPNMFMDSAGSVSKQFEGLADKLSFGLEDEPLETATKEN
For the molecule B2, the binding entry in experiment [2] is on record as “binds”.

B3: RFX7 (protein, UniProt Q2KHR2 1-1460)
chain: MAEEQQQPPPQQPDAHQQLPPSAPNSGVALPALVPGLPGTEASALQHKIKNSICKTVQSKVDCILQEVEKFTDLEKLYLYLQLPSGLSNGEKSDQNAMSSSRAQQMHAFSWIRNTLEEHPETSLPKQEVYDEYKSYCDNLGYHPLSAADFGKIMKNVFPNMKARRLGTRGKSKYCYSGLRKKAFVHMPTLPNLDFHKTGDGLEGAEPSGQLQNIDEEVISSACRLVCEWAQKVLSQPFDTVLELARFLVKSHYIGTKSMAALTVMAAAPAGMKGITQPSAFIPTAESNSFQPQVKTLPSPIDAKQQLQRKIQKKQQEQKLQSPLPGESAAKKSESATSNGVTNLPNGNPSILSPQPIGIVVAAVPSPIPVQRTRQLVTSPSPMSSSDGKVLPLNVQVVTQHMQSVKQAPKTPQNVPASPGGDRSARHRYPQILPKPANTSALTIRSPTTVLFTSSPIKTAVVPASHMSSLNVVKMTTISLTPSNSNTPLKHSASVSSATGTTEESRSVPQIKNGSVVSLQSPGSRSSSAGGTSAVEVKVEPETSSDEHPVQCQENSDEAKAPQTPSALLGQKSNTDGALQKPSNEGVIEIKATKVCDQRTKCKSRCNEMLPGTSTGNNQSTITLSVASQNLTFTSSSSPPNGDSINKDPKLCTKSPRKRLSSTLQETQVPPVKKPIVEQLSAATIEGQKQGSVKKDQKVPHSGKTEGSTAGAQIPSKVSVNVSSHIGANQPLNSSALVISDSALEQQTTPSSSPDIKVKLEGSVFLLDSDSKSVGSFNPNGWQQITKDSEFISASCEQQQDISVMTIPEHSDINDLEKSVWELEGMPQDTYSQQLHSQIQESSLNQIQAHSSDQLPLQSELKEFEPSVSQTNESYFPFDDELTQDSIVEELVLMEQQMSMNNSHSYGNCLGMTLQSQSVTPGAPMSSHTSSTHFYHPIHSNGTPIHTPTPTPTPTPTPTPTPTPTSEMIAGSQSLSRESPCSRLAQTTPVDSALGSSRHTPIGTPHSNCSSSVPPSPVECRNPFAFTPISSSMAYHDASIVSSSPVKPMQRPMATHPDKTKLEWMNNGYSGVGNSSVSGHGILPSYQELVEDRFRKPHAFAVPGQSYQSQSRHHDTHFGRLTPVSPVQHQGATVNNTNKQEGFAVPAPLDNKGTNSSASSNFRCRSVSPAVHRQRNLSGSTLYPVSNIPRSNVTPFGSPVTPEVHVFTNVHTDACANNIAQRSQSVPLTVMMQTAFPNALQKQANSKKITNVLLSKLDSDNDDAVRGLGMNNLPSNYTARMNLTQILEPSTVFPSANPQNMIDSSTSVYEFQTPSYLTKSNSTGQINFSPGDNQAQSEIGEQQLDFNSTVKDLLSGDSLQTNQQLVGQGASDLTNTASDFSSDIRLSSELSGSINDLNTLDPNLLFDPGRQQGQDDEATLEELKNDPLFQQICSESMNSMTSSGFEWIESKDHPTVEMLG
As for B3, in experiment [2], the binding result was “binds”.

B4: ESYT1 (protein, UniProt Q9BSJ8 1-1104)
chain: MERSPGEGPSPSPMDQPSAPSDPTDQPPAAHAKPDPGSGGQPAGPGAAGEALAVLTSFGRRLLVLIPVYLAGAVGLSVGFVLFGLALYLGWRRVRDEKERSLRAARQLLDDEEQLTAKTLYMSHRELPAWVSFPDVEKAEWLNKIVAQVWPFLGQYMEKLLAETVAPAVRGSNPHLQTFTFTRVELGEKPLRIIGVKVHPGQRKEQILLDLNISYVGDVQIDVEVKKYFCKAGVKGMQLHGVLRVILEPLIGDLPFVGAVSMFFIRRPTLDINWTGMTNLLDIPGLSSLSDTMIMDSIAAFLVLPNRLLVPLVPDLQDVAQLRSPLPRGIIRIHLLAARGLSSKDKYVKGLIEGKSDPYALVRLGTQTFCSRVIDEELNPQWGETYEVMVHEVPGQEIEVEVFDKDPDKDDFLGRMKLDVGKVLQASVLDDWFPLQGGQGQVHLRLEWLSLLSDAEKLEQVLQWNWGVSSRPDPPSAAILVVYLDRAQDLPLKKGNKEPNPMVQLSIQDVTQESKAVYSTNCPVWEEAFRFFLQDPQSQELDVQVKDDSRALTLGALTLPLARLLTAPELILDQWFQLSSSGPNSRLYMKLVMRILYLDSSEICFPTVPGCPGAWDVDSENPQRGSSVDAPPRPCHTTPDSQFGTEHVLRIHVLEAQDLIAKDRFLGGLVKGKSDPYVKLKLAGRSFRSHVVREDLNPRWNEVFEVIVTSVPGQELEVEVFDKDLDKDDFLGRCKVRLTTVLNSGFLDEWLTLEDVPSGRLHLRLERLTPRPTAAELEEVLQVNSLIQTQKSAELAAALLSIYMERAEDLPLRKGTKHLSPYATLTVGDSSHKTKTISQTSAPVWDESASFLIRKPHTESLELQVRGEGTGVLGSLSLPLSELLVADQLCLDRWFTLSSGQGQVLLRAQLGILVSQHSGVEAHSHSYSHSSSSLSEEPELSGGPPHITSSAPELRQRLTHVDSPLEAPAGPLGQVKLTLWYYSEERKLVSIVHGCRSLRQNGRDPPDPYVSLLLLPDKNRGTKRRTSQKKRTLSPEFNERFEWELPLDEAQRRKLDVSVKSNSSFMSRERELLGKVQLDLAETDLSQGVARWYDLMDNKDKGSS
As to B4, in experiment [2], the binding result was “binds”.
